PubChem BioAssay AID652259 | Drosophila RNAi Screening Center – 2013
Test: 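Genome-wide hunt for genes that control Wingless pathway activity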 (primary screen). Cells: Drosophila clone 8 imaginal disc epithelial cells. Reagents: long dsRNA against Drosophila genes. Treatment: pathway stimulated by co-transfected Wingless expression plasmid. Measured: 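Dual luciferase reads per well after Wingless plasmid stimulation: reporter firefly light and Renilla control light; activity is firefly divided by Renilla, a ratio not deposited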. Direction: firefly reporter light: higher = more Wg reporter light, before normalisation; Renilla control light: higher = more transfected or surviving cells. Active means: 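Strong candidates differ from their plate mean by at least two out of four per-plate statistical tests; weak candidates meet just one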. Meaning of the calls: active = candidate regulator (raises or lowers reporter); inactive = not a candidate.
In all, the deposit lists about 22,000 reagents; below is a random part of those with a known target gene and a result. In the full data, 233 (1.1%) are marked active. 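Light values are raw, unnormalised plate reads; the ratio scores behind the reporter calls were not deposited.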 Unmarked entries are inactive. No sequences are given here. Not stated in the record: the amount of reagent, the time to read-out, the dose of the treatment.

CG1523 [DRSC15033]
- firefly reporter light, replicate 1: 2549
- firefly reporter light, replicate 2: 4805
- Renilla control light, replicate 1: 923
- Renilla control light, replicate 2: 1770

Arc2 (Activity-regulated cytoskeleton associated protein 2) [DRSC06436]
- firefly reporter light, replicate 1: 3091
- Renilla control light, replicate 1: 1297

CG6565 [DRSC02970]
- firefly reporter light, replicate 1: 17061
- Renilla control light, replicate 1: 5480

Men-b (Malic enzyme b) [DRSC16736]
- firefly reporter light, replicate 1: 6848
- Renilla control light, replicate 1: 1906

wde (windei) [DRSC05955]
- firefly reporter light, replicate 1: 14694
- Renilla control light, replicate 1: 3889

mge (maggie) [DRSC08721]
- firefly reporter light, replicate 1: 9127
- Renilla control light, replicate 1: 3350

lectin-21Cb [DRSC00355]
- firefly reporter light, replicate 1: 3969
- firefly reporter light, replicate 2: 5937
- Renilla control light, replicate 1: 1328
- Renilla control light, replicate 2: 2461

Fnta (Farnesyl transferase alpha subunit) [DRSC00557]
- firefly reporter light, replicate 1: 6944
- Renilla control light, replicate 1: 3488

Cyp304a1 (Cytochrome P450 304a1) [DRSC16623]
- firefly reporter light, replicate 1: 13920
- Renilla control light, replicate 1: 2083

CG2004 [DRSC18200]
- firefly reporter light, replicate 1: 16999
- Renilla control light, replicate 1: 10854

CG17744 [DRSC10286]
- firefly reporter light, replicate 1: 2551
- firefly reporter light, replicate 2: 9446
- Renilla control light, replicate 1: 1789
- Renilla control light, replicate 2: 4065

rasp [DRSC08191]
- firefly reporter light, replicate 1: 5185
- Renilla control light, replicate 1: 2385

CG34050 (retired record) [DRSC09067]
- firefly reporter light, replicate 1: 2916
- Renilla control light, replicate 1: 563

CG1146 [DRSC08189]
- firefly reporter light, replicate 1: 12128
- Renilla control light, replicate 1: 3604

Takl1 (Tak1-like 1) [DRSC13443]
- firefly reporter light, replicate 1: 3392
- Renilla control light, replicate 1: 1883

CG32260 [DRSC08084]
- firefly reporter light, replicate 1: 2492
- Renilla control light, replicate 1: 1712

mof (males absent on the first) [DRSC18795]
- firefly reporter light, replicate 1: 17168
- Renilla control light, replicate 1: 3474

Reformatted: results already given.
| gene | DRSC id | firefly reporter light, replicate 1 | firefly reporter light, replicate 2 | Renilla control light, replicate 1 | Renilla control light, replicate 2 |
| --- | --- | --- | --- | --- | --- |
| CG32260 | DRSC08084 | 2492 | – | 1712 | – |
| mof (males absent on the first) | DRSC18795 | 17168 | – | 3474 | – |
